Results reported in paper PMC8382200.
These are yes or no findings as the source states them, for the method shown. Binding seen in cells or lysates may run through a third protein. For some assays here: Binding can be weak; no strength is given. Blank lines part the entries; values can stand above or below the molecule they belong to.

Protein sequences, listed by entry. Tags and fused reporters are not part of them. Lines headed by an entry give the natural chain unless they say otherwise; changes in a name come on top.
UniProt P35240: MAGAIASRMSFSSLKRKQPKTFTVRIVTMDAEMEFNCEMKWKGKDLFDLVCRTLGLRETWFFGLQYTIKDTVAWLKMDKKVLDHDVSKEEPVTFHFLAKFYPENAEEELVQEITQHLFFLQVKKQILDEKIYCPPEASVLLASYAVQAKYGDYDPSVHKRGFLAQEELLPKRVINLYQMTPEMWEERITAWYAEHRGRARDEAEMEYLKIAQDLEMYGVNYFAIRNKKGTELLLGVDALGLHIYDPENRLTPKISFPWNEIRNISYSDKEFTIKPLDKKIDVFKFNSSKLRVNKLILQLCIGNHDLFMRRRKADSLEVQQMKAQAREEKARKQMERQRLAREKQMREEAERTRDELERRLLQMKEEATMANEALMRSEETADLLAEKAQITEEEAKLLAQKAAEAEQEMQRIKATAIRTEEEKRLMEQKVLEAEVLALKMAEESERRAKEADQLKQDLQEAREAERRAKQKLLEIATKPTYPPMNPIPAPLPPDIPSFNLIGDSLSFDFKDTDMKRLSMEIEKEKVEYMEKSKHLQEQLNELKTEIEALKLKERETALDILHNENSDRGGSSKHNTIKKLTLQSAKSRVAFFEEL
UniProt O14646: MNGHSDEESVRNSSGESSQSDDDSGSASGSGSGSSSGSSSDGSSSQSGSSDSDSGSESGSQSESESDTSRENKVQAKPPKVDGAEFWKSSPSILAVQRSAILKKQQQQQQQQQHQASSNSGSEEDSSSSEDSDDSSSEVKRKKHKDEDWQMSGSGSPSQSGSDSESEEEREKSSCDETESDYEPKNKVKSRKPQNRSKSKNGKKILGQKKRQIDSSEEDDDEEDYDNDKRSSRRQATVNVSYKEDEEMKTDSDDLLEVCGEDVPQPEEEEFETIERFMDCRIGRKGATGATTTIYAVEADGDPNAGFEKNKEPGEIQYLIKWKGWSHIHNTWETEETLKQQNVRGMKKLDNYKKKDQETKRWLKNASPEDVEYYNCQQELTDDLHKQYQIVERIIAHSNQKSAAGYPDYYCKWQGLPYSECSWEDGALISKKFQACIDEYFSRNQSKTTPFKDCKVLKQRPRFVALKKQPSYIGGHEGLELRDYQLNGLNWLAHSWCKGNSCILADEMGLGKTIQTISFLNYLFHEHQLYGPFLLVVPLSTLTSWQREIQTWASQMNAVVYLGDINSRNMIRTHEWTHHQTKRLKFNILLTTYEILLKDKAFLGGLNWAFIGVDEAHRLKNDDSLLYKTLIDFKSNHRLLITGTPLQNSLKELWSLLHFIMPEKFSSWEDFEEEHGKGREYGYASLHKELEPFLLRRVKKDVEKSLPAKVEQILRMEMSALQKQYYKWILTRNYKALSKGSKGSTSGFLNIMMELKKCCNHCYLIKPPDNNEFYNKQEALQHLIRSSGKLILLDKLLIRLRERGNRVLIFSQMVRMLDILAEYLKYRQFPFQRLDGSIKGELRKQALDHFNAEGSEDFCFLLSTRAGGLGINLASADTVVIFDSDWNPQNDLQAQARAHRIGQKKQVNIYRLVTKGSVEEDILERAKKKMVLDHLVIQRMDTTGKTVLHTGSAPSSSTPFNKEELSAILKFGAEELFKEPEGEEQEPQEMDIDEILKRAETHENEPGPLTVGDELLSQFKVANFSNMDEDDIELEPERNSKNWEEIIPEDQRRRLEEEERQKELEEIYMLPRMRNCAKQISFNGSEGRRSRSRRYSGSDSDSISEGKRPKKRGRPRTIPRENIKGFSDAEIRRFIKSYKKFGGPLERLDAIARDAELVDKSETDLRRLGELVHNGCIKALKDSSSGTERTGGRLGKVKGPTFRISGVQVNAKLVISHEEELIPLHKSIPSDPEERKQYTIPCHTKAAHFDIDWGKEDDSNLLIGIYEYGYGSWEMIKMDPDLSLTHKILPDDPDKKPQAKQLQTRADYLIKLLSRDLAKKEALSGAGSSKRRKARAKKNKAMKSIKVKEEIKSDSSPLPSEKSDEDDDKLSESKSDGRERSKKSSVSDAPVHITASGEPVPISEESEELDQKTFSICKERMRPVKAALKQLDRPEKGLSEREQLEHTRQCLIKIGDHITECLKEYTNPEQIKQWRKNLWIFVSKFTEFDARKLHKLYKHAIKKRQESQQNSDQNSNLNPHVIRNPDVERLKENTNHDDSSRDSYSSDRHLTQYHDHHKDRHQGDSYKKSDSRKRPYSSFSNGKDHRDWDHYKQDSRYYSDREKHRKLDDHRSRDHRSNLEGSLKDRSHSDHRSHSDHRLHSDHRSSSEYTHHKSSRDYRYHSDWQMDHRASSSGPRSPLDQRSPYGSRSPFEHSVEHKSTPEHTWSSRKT
UniProt Q9Y4B6: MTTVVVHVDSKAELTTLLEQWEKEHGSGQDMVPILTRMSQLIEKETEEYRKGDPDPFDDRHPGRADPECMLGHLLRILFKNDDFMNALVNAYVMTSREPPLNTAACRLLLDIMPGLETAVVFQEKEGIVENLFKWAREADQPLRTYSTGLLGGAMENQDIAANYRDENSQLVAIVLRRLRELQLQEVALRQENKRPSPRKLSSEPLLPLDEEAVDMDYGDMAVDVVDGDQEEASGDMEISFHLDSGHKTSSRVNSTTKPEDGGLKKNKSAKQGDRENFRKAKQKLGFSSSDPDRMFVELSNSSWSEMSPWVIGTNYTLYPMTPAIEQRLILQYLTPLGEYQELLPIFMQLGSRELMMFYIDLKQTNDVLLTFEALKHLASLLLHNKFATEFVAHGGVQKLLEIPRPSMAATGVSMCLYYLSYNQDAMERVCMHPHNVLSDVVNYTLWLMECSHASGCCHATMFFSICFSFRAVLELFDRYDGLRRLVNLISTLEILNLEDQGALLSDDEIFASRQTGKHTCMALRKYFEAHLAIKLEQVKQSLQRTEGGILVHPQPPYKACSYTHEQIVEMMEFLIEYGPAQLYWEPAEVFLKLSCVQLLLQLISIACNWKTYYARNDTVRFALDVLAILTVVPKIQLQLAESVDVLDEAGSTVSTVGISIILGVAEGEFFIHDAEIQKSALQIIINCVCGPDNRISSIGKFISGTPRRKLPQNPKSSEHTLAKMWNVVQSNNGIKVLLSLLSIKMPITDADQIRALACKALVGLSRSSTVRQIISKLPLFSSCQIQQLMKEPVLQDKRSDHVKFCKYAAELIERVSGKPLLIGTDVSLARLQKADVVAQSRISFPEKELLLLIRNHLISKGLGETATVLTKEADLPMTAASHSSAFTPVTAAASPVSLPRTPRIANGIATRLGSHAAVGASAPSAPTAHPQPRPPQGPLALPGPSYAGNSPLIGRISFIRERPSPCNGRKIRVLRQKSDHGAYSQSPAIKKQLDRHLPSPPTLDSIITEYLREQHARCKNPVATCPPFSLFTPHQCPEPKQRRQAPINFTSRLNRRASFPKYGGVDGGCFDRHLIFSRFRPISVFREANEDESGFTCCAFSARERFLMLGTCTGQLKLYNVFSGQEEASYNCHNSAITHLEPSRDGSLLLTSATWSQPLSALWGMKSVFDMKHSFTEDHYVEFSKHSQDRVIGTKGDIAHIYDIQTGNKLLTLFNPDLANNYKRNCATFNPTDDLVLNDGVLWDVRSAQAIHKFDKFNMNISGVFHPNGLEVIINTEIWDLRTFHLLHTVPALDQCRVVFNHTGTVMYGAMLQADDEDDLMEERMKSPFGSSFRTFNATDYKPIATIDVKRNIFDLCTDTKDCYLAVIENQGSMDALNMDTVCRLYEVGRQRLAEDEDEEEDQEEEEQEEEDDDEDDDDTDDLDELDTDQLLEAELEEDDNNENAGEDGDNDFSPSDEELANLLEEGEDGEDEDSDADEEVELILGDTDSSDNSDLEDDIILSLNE

Tests used:
[1] = target: recombinant GST-Merlin ΔB41 (UniProt P35240); assay: pull-down; 'fishing': recombinant GST-Merlin proteins from Sf9 on Glutathione Sepharose beads (10 μl) added to cell lysates for 2 h, washed, eluted with LDS sample buffer; Western blot; only the target purified
[2] = target: recombinant GST-Merlin L46R (UniProt P35240); assay: as above
Flag-Merlin L46R = Flag-Merlin L46R (UniProt P35240); assay: co-IP; Flag-tagged proteins transfected in HEK293T; lysis in PBS-E LB (1% TX100); Flag (M2) agarose IP; endogenous proteins by Western blot; in some panels after siRNA knock-downs or in dense or sparse cells
Flag-Merlin ΔF118 = Flag-Merlin ΔF118 (UniProt P35240); assay: as above
Flag-Merlin L64P = Flag-Merlin L64P (UniProt P35240); assay: as above
Flag-Merlin A211D = Flag-Merlin A211D (UniProt P35240); assay: as above
[3] = target: GST-Merlin C-terminal half; assay: pull-down; GST-Merlin constructs transfected in and purified from HEK293T cells (glutathione beads); bound endogenous proteins by Western blot
[4] = target: GST-Merlin N-terminal half; assay: as above
Flag-Merlin isoform 2 = assay: co-IP; Flag-tagged proteins transfected in HEK293T; lysis in PBS-E LB (1% TX100); Flag (M2) agarose IP; endogenous proteins by Western blot; in some panels after siRNA knock-downs or in dense or sparse cells

binding [1]: no binding
Molecule: CHD1 (from UniProt O14646 1-1710)

binding [1]: binds | binding [2]: binds | binding (Flag-Merlin L46R): binds | binding (Flag-Merlin ΔF118): binds | binding (Flag-Merlin L64P): binds | binding (Flag-Merlin A211D): binds
Molecule: VPRBP (from UniProt Q9Y4B6 1-1507)

binding [3]: no binding | binding [4]: no binding | binding (Flag-Merlin isoform 2): binds
B1: TAT-SF1 (protein, UniProt O43719 1-755)
chain: MSGTNLDGNDEFDEQLRMQELYGDGKDGDTQTDAGGEPDSLGQQPTDTPYEWDLDKKAWFPKITEDFIATYQANYGFSNDGASSSTANVEDVHARTAEEPPQEKAPEPTDARKKGEKRKAESGWFHVEEDRNTNVYVSGLPPDITVDEFIQLMSKFGIIMRDPQTEEFKVKLYKDNQGNLKGDGLCCYLKRESVELALKLLDEDEIRGYKLHVEVAKFQLKGEYDASKKKKKCKDYKKKLSMQQKQLDWRPERRAGPSRMRHERVVIIKNMFHPMDFEDDPLVLNEIREDLRVECSKFGQIRKLLLFDRHPDGVASVSFRDPEEADYCIQTLDGRWFGGRQITAQAWDGTTDYQVEETSREREERLRGWEAFLNAPEANRGLRRSDSVSASERAGPSRARHFSEHPSTSKMNAQETATGMAFEEPIDEKKFEKTEDGGEFEEGASENNAKESSPEKEAEEGCPEKESEEGCPKRGFEGSCSQKESEEGNPVRGSEEDSPKKESKKKTLKNDCEENGLAKESEDDLNKESEEEVGPTKESEEDDSEKESDEDCSEKQSEDGSEREFEENGLEKDLDEEGSEKELHENVLDKELEENDSENSEFEDDGSEKVLDEEGSEREFDEDSDEKEEEEDTYEKVFDDESDEKEDEEYADEKGLEAADKKAEEGDADEKLFEESDDKEDEDADGKEVEDADEKLFEDDDSNEKLFDEEEDSSEKLFDDSDERGTLGGFGSVEEGPLSTGSSFILSSDDDDDDI

binding [3]: binds
B2: AMOTL1 (protein, UniProt Q8IY63 1-956)
chain: MWRAKLRRGTCEPAVKGSPSACYSPSSPVQVLEDSTYFSPDFQLYSGRHETSALTVEATSSIREKVVEDPLCNFHSPNFLRISEVEMRGSEDAAAGTVLQRLIQEQLRYGTPTENMNLLAIQHQATGSAGPAHPTNNFSSTENLTQEDPQMVYQSARQEPQGQEHQVDNTVMEKQVRSTQPQQNNEELPTYEEAKAQSQFFRGQQQQQQQQGAVGHGYYMAGGTSQKSRTEGRPTVNRANSGQAHKDEALKELKQGHVRSLSERIMQLSLERNGAKQHLPGSGNGKGFKVGGGPSPAQPAGKVLDPRGPPPEYPFKTKQMMSPVSKTQEHGLFYGDQHPGMLHEMVKPYPAPQPVRTDVAVLRYQPPPEYGVTSRPCQLPFPSTMQQHSPMSSQTSSASGPLHSVSLPLPLPMALGAPQPPPAASPSQQLGPDAFAIVERAQQMVEILTEENRVLHQELQGYYDNADKLHKFEKELQRISEAYESLVKSTTKRESLDKAMRNKLEGEIRRLHDFNRDLRDRLETANRQLSSREYEGHEDKAAEGHYASQNKEFLKEKEKLEMELAAVRTASEDHRRHIEILDQALSNAQARVIKLEEELREKQAYVEKVEKLQQALTQLQSACEKREQMERRLRTWLERELDALRTQQKHGNGQPANMPEYNAPALLELVREKEERILALEADMTKWEQKYLEESTIRHFAMNAAATAAAERDTTIINHSRNGSYGESSLEAHIWQEEEEVVQANRRCQDMEYTIKNLHAKIIEKDAMIKVLQQRSRKDAGKTDSSSLRPARSVPSIAAATGTHSRQTSLTSSQLAEEKKEEKTWKGSIGLLLGKEHHEHASAPLLPPPPTSALSSIASTTAASSAHAKTGSKDSSTQTDKSAELFWPSMASLPSRGRLSTTPAHSPVLKHPAAKGTAEKLENSPGHGKSPDHRGRVSSLLHKPEFPDGEMMEVLI
